Results taken from patent US20230293487A1, “ANTI-INFLAMMATORY COMPOSITION COMPRISING BENZOFURAN-BASED N-ACYLHYDRAZONE DERIVATIVES” (KOREA RESEARCH INSTITUTE OF BIOSCIENCE AND BIOTECHNOLOGY, priority 2020, published 2023).
Some of these results come from one statement about several compounds together.

Tested on: IL-4 and IL-13
Test: qPCR of inflammatory cytokines in skin tissue of oxazolone-treated mice (Test Example 4)
Assay type: in vivo
Settings: mice treated with oxazolone and compound, compared with oxazolone alone, FIG. 7

Compound: CCOCCn1c(Cl)c(/C=N/NC(=O)c2cc3cc(C)ccc3o2)c2ccccc21 [Example 4, (E)-N′-[(2-chloro-1-(2-ethoxyethyl)-1H-indol-3-yl]methylene}-5-methylbenzofuran-2-carbohydrazide]
- expression level of the cytokine (IL-4 and IL-13) in skin tissue: 20-25%

Compound: (E)-N′-[(2-chloro-1-(2-methoxyethyl)-1H-indol-3-yl]methylene}-5-methylbenzofuran-2-carbohydrazide [Example 7]
- expression level of the cytokine (IL-4 and IL-13) in skin tissue: 20-25%
